From PubChem BioAssay AID504648 (National Center for Advancing Translational Sciences (NCATS), 2011)
Hit rate of the full screen: of about 390,000 compounds, about 610 (0.16%) were called active. Inconclusive results, whose numbers are uncertain, are shown with a selection of clear calls. Calls follow the shape of the dose curve; as a rule, active = well fitted inhibition curve with a large enough effect; inconclusive = small, poorly fitted or top-dose-only effect, or effect the other way, or another doubt; inactive = no such curve, though single readings can be large or run the other way. Potencies of inconclusive entries are doubtful fits and often do not repeat.

assay: Nrf2 qHTS screen for inhibitors: counterscreen for cytotoxicity; conditions: A549 ARE-Fluc cells, CellTiter-Fluor viability, 18-24 h; activity change, negative = cytotoxicity: at 46 µM (top of the series)
In short: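 Cytotoxicity counterscreen: CellTiter-Fluor fluorescence was measured in A549 ARE_Fluc cells after 18-24 h of compound exposure in a concentration series. The subsequent BugLite luminescent read reports ARE-luciferase activity.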
% is scaled to controls: 0 for no effect and ±100 for the full control effect; potency is read from the fitted curve at half-maximal effect.

Row | Compound | Potency | activity change, negative = cytotoxicity
1 | CCCCCCCCn1c2c(c(=N)c3c1CCC3)CCCC2 | inconclusive: 18.4 µM [falling, partial curve, poor fit] | 
2 | CC(C)C(=O)c1cc2c(cc1NC(=O)c1ccccc1)OCCO2 | inconclusive: 20.6 µM [falling, single point] | 
3 | O=C(Nc1cccc(C(=O)N2CCCCC2)c1)c1nsc2ccccc12 |  | inactive: -3.33%
4 | CCc1ccc(-n2nc(C)c3c(C(=O)Nc4cccc(C(F)(F)F)c4)cc(C)nc32)cc1 | inconclusive: 11.6 µM [falling, partial curve, poor fit] | 
5 | COc1cc2cc(C(=O)N3CCOCC3)cc(-c3ccc(C)cc3)c2cc1OC | inconclusive: 29.1 µM [falling, single point] | 
6 | O=C(Nc1ccc(Cl)c(Cl)c1)N1N=CCC1c1ccccc1 (configuration not stated) | inconclusive: 29.1 µM [falling, single point] | 
7 | C[C@@H]1O[C@@H](Oc2c(-c3cc(O)c(O)c(O)c3)oc3cc(O)cc(O)c3c2=O)[C@H](O)[C@H](O)[C@H]1O | inconclusive: 25.9 µM [falling, partial curve, poor fit] | 
8 | Cc1noc(NS(=O)(=O)c2ccc(N/C=C\C(=O)c3ccncc3)cc2)c1C | inconclusive: 16.4 µM [falling, partial curve] | 
9 | Brc1ccc(-c2nnc(Cc3ccccc3)o2)cc1 | inconclusive: 7.31 µM [activator, partial curve, poor fit] | 
10 | CCN(CC)c1ccc(CNc2nc3ccccc3n2CCN2CCCCC2)cc1 | inconclusive: 29.1 µM [falling, single point] | 
11 | COc1ccccc1C(=O)NCCC(=O)Nc1nc2ccccc2[nH]1 | inconclusive: 20.6 µM [falling, partial curve, poor fit] | 
12 | O=C(Nc1ccc(Cl)cc1)c1ccc(CN2CCc3ccccc3C2)cc1 |  | inactive: -9.39%
13 | COc1ccc(CN(CCC(c2ccc3c(c2)OCO3)c2ccccc2OC)C(C)=O)cc1 (configuration not stated) |  | inactive: -5.65%
14 | C/C(CC(=O)Nc1ccc(Cl)c(C(F)(F)F)c1)=N\NC(=O)c1cc2ccccc2cc1O | inconclusive: 14.6 µM [falling, partial curve, poor fit] | 
15 | COc1ccccc1-c1ccc(=O)n(CC(=O)NCc2ccco2)n1 |  | inactive: -1.54%
16 | CC(C)(C)C(=O)/C(=C\c1cccc([N+](=O)[O-])c1)n1cncn1 | inconclusive: 29.1 µM [falling, single point] | 
17 | COc1cc2c(cc1Cl)/C(=C\CCN(C)C)c1ccccc1S2 | inconclusive: 32.6 µM [falling, partial curve, poor fit] | 
18 | CCOC(=O)c1ccc2nc(C)c3c(c2c1)OC(C)C3 (configuration not stated) |  | inactive: -1.58%
19 | CCCOc1ccc(C(=O)Nc2cccc(-c3nc4ccccc4[nH]3)c2)cc1 | inconclusive: 32.6 µM [falling, partial curve, poor fit] | 
20 | COc1cc(/C=C2/SC(=S)N(CC(=O)O)C2=O)ccc1OC(=O)c1cccs1 | inconclusive: 20.6 µM [falling, single point] | 
21 | CCOc1cc(C2C(C(=O)OC)=C(C)NC3=C2C(=O)c2ccccc23)ccc1O (configuration not stated) | inconclusive: 23.1 µM [falling, partial curve, poor fit] | 
22 | O=C(Nc1ccc(F)cc1)c1cc(S(=O)(=O)N2CCOCC2)cs1 |  | inactive: -7.25%
23 | CCc1ccc(-c2cc(C)no2)cc1S(=O)(=O)N1CCN(c2ccccc2)CC1 |  | inactive: 13.8%

6 compounds out of the list, sorted by molar mass, smallest number first:
Row | Compound | Potency | activity change, negative = cytotoxicity
1 | CCCCCCCCn1c2c(c(=N)c3c1CCC3)CCCC2 | inconclusive: 18.4 µM [falling, partial curve, poor fit] | 
17 | COc1cc2c(cc1Cl)/C(=C\CCN(C)C)c1ccccc1S2 | inconclusive: 32.6 µM [falling, partial curve, poor fit] | 
21 | CCOc1cc(C2C(C(=O)OC)=C(C)NC3=C2C(=O)c2ccccc23)ccc1O (configuration not stated) | inconclusive: 23.1 µM [falling, partial curve, poor fit] | 
10 | CCN(CC)c1ccc(CNc2nc3ccccc3n2CCN2CCCCC2)cc1 | inconclusive: 29.1 µM [falling, single point] | 
13 | COc1ccc(CN(CCC(c2ccc3c(c2)OCO3)c2ccccc2OC)C(C)=O)cc1 (configuration not stated) |  | inactive: -5.65%
7 | C[C@@H]1O[C@@H](Oc2c(-c3cc(O)c(O)c(O)c3)oc3cc(O)cc(O)c3c2=O)[C@H](O)[C@H](O)[C@H]1O | inconclusive: 25.9 µM [falling, partial curve, poor fit] | 

Going on with the list:

Row | Compound | Potency | activity change, negative = cytotoxicity
24 | O=C(NNC(=O)c1ccc([N+](=O)[O-])o1)c1ccccc1 | inconclusive: 23.1 µM [falling, single point] | 
25 | CCN(CC)C(=O)c1ccc2nc3ccccc3nc2c1 | inconclusive: 1.84 µM [falling, full curve] | 
26 | Cc1cccc(C)c1NC(=O)Cn1nnc(-c2ccc(CN3CCC(C)CC3)cc2)n1 | inconclusive: 8.2 µM [falling, partial curve] | 
27 | Cc1cccc(/C=C/c2onc(C)c2S(=O)(=O)N2CCC(C(=O)N3CCC(C)CC3)CC2)c1 | inconclusive: 16.4 µM [falling, partial curve, poor fit] | 
28 | O=C(CSc1ncnc2scc(-c3ccccc3)c12)N1CCN(c2ccccc2F)CC1 |  | inactive: 11.8%
29 | O=C(Nc1ccc(C(F)(F)F)cc1)C1CCC(CNS(=O)(=O)c2cccc3nsnc23)CC1 (configuration not stated) |  | inactive: -1.17%
30 | CCCCn1c(N)c(N(CCOC)C(=O)c2c(CC)noc2C)c(=O)[nH]c1=O |  | inactive: 9.92%
31 | O=C(Cn1c2ccccc2c2nc3n(c(=O)c21)CCS3)N1CCCC1 | inconclusive: 14.6 µM [falling, partial curve, poor fit] | 
32 | CC(CCc1ccccc1)NC(=O)CN1CCc2ccccc2C1 (configuration not stated) | inconclusive: 6.51 µM [activator, full curve] | 
33 | CN1CCN(Cc2nc3ccccc3c(=O)n2Cc2nc(-c3ccccc3F)cs2)CC1 | inconclusive: 8.2 µM [activator, partial curve, poor fit] | 
34 | CCC(CO)[n+]1c(C)cc(/C=C2\Sc3ccccc3N2Cc2ccccc2)cc1C (configuration not stated) | inconclusive: 29.1 µM [falling, single point] | 
35 | CCOC(=O)c1c(C)[nH]c(C(=O)OCC(=O)NCCc2ccc(OCC)c(OCC)c2)c1C | inconclusive: 18.4 µM [falling, partial curve, poor fit] | 
36 | O=C1CCCN1CN1CCCCC1 | inconclusive: 29.1 µM [falling, single point] | 
37 | O=S(=O)(/N=C(/Nc1ccc(Cl)c(S(=O)(=O)Nc2ccccc2Cl)c1)c1ccc(F)cc1)c1ccccc1 | inactive | 
38 | Cc1ccc(S(=O)(=O)Nc2ccc(-c3cn4ccc(C)cc4n3)cc2)cc1 |  | inactive: 3.13%
39 | CCN1CCN(C(=O)CCCCCn2c(=O)[nH]c3cc(C(=O)OC)ccc3c2=O)CC1 | inconclusive: 9.2 µM [activator, partial curve, poor fit] | 
40 | O=S(=O)(c1cccc(Br)c1)N1CCN(c2ccnc3cc(Cl)ccc23)CC1 | inconclusive: 29.1 µM [falling, single point] | 
41 | Cc1ccc2[nH]c(=O)c(CN(c3cccc(C)c3C)S(=O)(=O)c3ccccc3)cc2c1 | inconclusive: 23.1 µM [falling, partial curve, poor fit] | 
42 | CCc1nnc(NS(=O)(=O)c2ccc(Nc3ccc([N+](=O)[O-])c4nonc34)cc2)s1 | active: 23.1 µM | 
43 | Cc1ccc(-c2csc(NC(=O)c3ccccc3F)c2C(=O)O)cc1 |  | inactive: -14.2%
44 | Cc1cc(C)cc(NC(=O)c2nnn(Cc3cc(C)ccc3C)c2N)c1 |  | inactive: -15.4%
45 | CN(c1ccccc1)S(=O)(=O)c1ccc(C(=O)Nc2ccncc2)cc1 |  | inactive: 5.82%
46 | COC(=O)c1cc2oc3ccccc3c2n1CC(=O)Nc1ccc(OC)c(OC)c1OC | inconclusive: 0.146 µM [falling, full curve, poor fit] | 

Row | Compound | Potency | activity change, negative = cytotoxicity
47 | CC(=O)Nc1cccc(NC(=O)c2cc(-c3cccnc3)nc3ccc(Br)cc23)c1 | inconclusive: 23.1 µM [falling, single point] | 
48 | CCCCn1c(/C=N/Nc2nc3ccccc3[nH]2)nc2ccccc21 | inconclusive: 29.1 µM [falling, single point] | 
49 | CCC(COC(=O)c1ccccc1)Oc1cc(NCc2ccccc2)c2ncn(C(C)C)c2c1 (configuration not stated) | active: 16.4 µM | 
50 | Cc1ccc(S(=O)(=O)c2cn(C)c3cc(N4CCN(C)CC4)c(F)cc3c2=O)cc1 | inconclusive: 14.6 µM [falling, partial curve, poor fit] | 
51 | O=C(Nc1nc(-c2ccccn2)cs1)Nc1ccc(F)cc1F |  | inactive: -19.1%
52 | O=C(Nc1cccc(Cl)c1)c1c(NC(=O)C(F)(F)F)sc2c1CCCC2 | inconclusive: 18.4 µM [falling, partial curve] | 
53 | Cc1nn(-c2nc3ccccc3n2Cc2ccccc2)c2c1C(=O)CC(C)(C)C2 |  | inactive: 1.5%
54 | CCOC(=O)c1cnc2sc3c(n2c1=O)CCCC3 | inconclusive: 20.6 µM [falling, partial curve, poor fit] | 
55 | Cc1ccc(Cl)cc1N1CCN(C(=O)CSc2nnc3n2C(C)(C)Cc2ccccc2-3)CC1 | inconclusive: 13 µM [falling, partial curve] | 
56 | Cc1ccc(N=Cc2c(O)n(-c3nccs3)c(=O)c3ccccc23)cc1 | inconclusive: 29.1 µM [falling, single point] | 
57 | Cc1nn(CCCC(=O)Nc2ccccc2C(F)(F)F)c(=O)c2c1sc1ccccc12 |  | inactive: -8.12%
58 | CS(=O)(=O)c1ccc(-c2cccc(NC(=O)c3ccc(Br)o3)c2)nn1 | inconclusive: 6.51 µM [falling, partial curve, poor fit] | 
59 | OC1Cc2ccccc2C1Nc1cccc(C(F)(F)F)c1 (configuration not stated) |  | inactive: -0.452%
60 | COc1ccc(C(CCNCc2ccc(OC(C)C)cc2)C(C)C)cc1 (configuration not stated) |  | inactive: -10.6%
61 | Cc1ccc2c(c1)C(SCC(=O)NCCc1ccccc1)CC1(CCCC1)O2 (configuration not stated) | inconclusive: 5.17 µM [activator, single point] | 
62 | C[C@H](NC(=O)c1ccc(C(C)(C)C)cc1)C(=O)N1CCN(C/C=C/c2ccccc2)CC1 | inconclusive: 23.1 µM [falling, partial curve, poor fit] | 
63 | Cc1cc(C)c2oc(C(=O)N(Cc3ccc(F)cc3)C3CCS(=O)(=O)C3)cc(=O)c2c1 (configuration not stated) | inconclusive: 25.9 µM [falling, partial curve, poor fit] | 
64 | CCCCOc1c(Cl)cc(C(=O)N(Cc2ccc(C)o2)C2CCS(=O)(=O)C2)cc1Cl (configuration not stated) |  | inactive: -2.13%
65 | CCC1=NN(C(=O)c2ccccc2O)C(O)(c2ccccc2)C1 (configuration not stated) |  | inactive: -21%
66 | CC(C)CN1C(=O)C(=O)N(CC(=O)NC(C)CCc2ccccc2)C1=O (configuration not stated) |  | inactive: 0.936%
67 | O=C(c1ccccc1)c1ccc(OCC(O)CN2CCN(S(=O)(=O)N3CCCCC3)CC2)cc1 (configuration not stated) | inconclusive: 29.1 µM [falling, single point] | 
